Key:
CcOctβ3R = system: T1, CcOctβ3R; settings: read-out: CcOctβ3R / IC50; antagonist; non-saturating OA (300 nM); 100 μM IBMX; 25 °C
T1 construct: gene Octβ3R
Description: inhibition of OA-induced cAMP in stable CHO-K1 cells (cAMP immunoassay) on CcOctβ3R

CcOctβ2R = system: T2, CcOctβ2R; settings: read-out: CcOctβ2R / IC50; antagonist; non-saturating OA (30 nM); 100 μM IBMX; 25 °C
T2 construct: gene Octβ2R
Description: inhibition of OA-induced cAMP in stable CHO-K1 cells (cAMP immunoassay) on CcOctβ2R

CcOctβ1R = system: T3, CcOctβ1R; settings: read-out: CcOctβ1R / IC50; antagonist; non-saturating OA (100 nM); 100 μM IBMX; 25 °C
T3 construct: gene Octβ1R
Description: inhibition of OA-induced cAMP in stable CHO-K1 cells (cAMP immunoassay) on CcOctβ1R

CN1CC2c3ccccc3Oc3ccc(Cl)cc3C2C1 (stereo not drawn) [Asenapine]
IC50 (CcOctβ3R): 11.3 nM | IC50 (CcOctβ2R): 23.4 nM | IC50 (CcOctβ1R): 170 nM
